Results are given in words; binding and its absence hold for the method and conditions named. In cells and extracts the contact can be indirect. A result given as binding can be weak or reduced; the word gives no strength.

The assay has as its target T1, Leg1a expressed in zebrafish embryos from injected mRNA (zebrafish) (UniProt A5PF61).
T1 sequence: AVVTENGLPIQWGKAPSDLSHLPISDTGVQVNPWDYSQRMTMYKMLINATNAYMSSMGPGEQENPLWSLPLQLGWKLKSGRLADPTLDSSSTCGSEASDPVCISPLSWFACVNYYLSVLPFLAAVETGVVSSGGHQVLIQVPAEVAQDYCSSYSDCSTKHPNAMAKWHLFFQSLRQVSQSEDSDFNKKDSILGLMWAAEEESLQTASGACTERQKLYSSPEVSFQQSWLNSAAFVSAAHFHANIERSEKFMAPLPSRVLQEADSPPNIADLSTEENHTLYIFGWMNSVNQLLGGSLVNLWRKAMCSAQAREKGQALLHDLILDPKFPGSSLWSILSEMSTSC
Kind of assay: co-IP; zebrafish embryos co-injected with leg1a and fgfr3 mRNA at one-cell stage, harvested at 7 hpf, NP40 lysate; IP with the Leg1 antibody (mouse IgG as control), FGFR3 detected with an anti-FGFR3 antibody.

In the case of “FGFR3 expressed in zebrafish embryos from injected mRNA (receptor)”, the binding entry is “binds”.

The values are drawn from article PMC4764323.
